Source: article PMC6465271
Results are given in words; binding and its absence hold for the method and conditions named. In cells and extracts the contact can be indirect. Some binding calls cover weakened binding; strength is not graded here. Where a sequence is shown, tags or fusion partners need not be part of it.

Tests used:
[1] = target: T1, QUIRKY (QKY), full-length, FLAG-tagged (QKY-FLAG) (Arabidopsis) (UniProt B8XCH5); test: co-IP; total protein extracts from Nicotiana benthamiana leaves transiently transformed with SCM-MYC and QKY-FLAG; buffer 50 mM Tris pH 7.5, 150 mM NaCl, 1% Triton X-100, protease inhibitor cocktail; 1 mg of total proteins; EZview Red ANTI-FLAG M2 Affinity Gel named in the methods
T1 sequence: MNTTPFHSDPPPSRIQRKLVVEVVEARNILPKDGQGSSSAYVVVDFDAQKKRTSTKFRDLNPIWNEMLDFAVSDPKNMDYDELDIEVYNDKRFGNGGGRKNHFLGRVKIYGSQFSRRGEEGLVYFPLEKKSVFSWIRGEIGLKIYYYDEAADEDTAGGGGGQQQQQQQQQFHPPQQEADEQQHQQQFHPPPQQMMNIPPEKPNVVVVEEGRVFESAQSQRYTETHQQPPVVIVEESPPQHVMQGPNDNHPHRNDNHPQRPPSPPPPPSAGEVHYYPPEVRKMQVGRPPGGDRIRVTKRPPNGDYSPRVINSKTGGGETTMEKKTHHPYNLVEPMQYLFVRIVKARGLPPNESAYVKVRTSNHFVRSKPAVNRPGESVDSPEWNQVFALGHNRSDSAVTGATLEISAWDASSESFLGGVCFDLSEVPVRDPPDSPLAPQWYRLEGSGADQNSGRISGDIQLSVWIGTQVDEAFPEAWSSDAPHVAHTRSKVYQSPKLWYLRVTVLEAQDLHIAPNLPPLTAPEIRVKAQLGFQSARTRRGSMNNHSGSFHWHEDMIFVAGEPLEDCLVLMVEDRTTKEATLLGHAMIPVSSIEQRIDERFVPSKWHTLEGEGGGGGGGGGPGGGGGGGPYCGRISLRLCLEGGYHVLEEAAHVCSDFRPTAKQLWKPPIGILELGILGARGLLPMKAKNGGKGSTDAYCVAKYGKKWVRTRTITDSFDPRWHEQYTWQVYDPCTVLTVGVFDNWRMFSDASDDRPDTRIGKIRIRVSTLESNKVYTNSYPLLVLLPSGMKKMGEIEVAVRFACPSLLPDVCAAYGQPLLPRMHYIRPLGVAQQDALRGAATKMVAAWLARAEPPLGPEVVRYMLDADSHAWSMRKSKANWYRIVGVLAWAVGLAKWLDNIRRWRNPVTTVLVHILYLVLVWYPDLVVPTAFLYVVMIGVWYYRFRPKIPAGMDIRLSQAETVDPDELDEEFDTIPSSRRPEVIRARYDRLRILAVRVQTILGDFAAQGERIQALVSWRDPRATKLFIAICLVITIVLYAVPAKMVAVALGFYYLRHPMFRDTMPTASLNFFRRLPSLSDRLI

[2] = target: T2, QKY-EYFPc-V2 (EYFPc between the end of the first transmembrane domain and the beginning of the PRT domain of QKY) (Arabidopsis) (UniProt B8XCH5); test: split reporter; BiFC with EYFPn on SCM and EYFPc on QKY, coexpressed under the 35S promoter in Nicotiana benthamiana leaf epidermal cells; confocal microscopy
T2 sequence: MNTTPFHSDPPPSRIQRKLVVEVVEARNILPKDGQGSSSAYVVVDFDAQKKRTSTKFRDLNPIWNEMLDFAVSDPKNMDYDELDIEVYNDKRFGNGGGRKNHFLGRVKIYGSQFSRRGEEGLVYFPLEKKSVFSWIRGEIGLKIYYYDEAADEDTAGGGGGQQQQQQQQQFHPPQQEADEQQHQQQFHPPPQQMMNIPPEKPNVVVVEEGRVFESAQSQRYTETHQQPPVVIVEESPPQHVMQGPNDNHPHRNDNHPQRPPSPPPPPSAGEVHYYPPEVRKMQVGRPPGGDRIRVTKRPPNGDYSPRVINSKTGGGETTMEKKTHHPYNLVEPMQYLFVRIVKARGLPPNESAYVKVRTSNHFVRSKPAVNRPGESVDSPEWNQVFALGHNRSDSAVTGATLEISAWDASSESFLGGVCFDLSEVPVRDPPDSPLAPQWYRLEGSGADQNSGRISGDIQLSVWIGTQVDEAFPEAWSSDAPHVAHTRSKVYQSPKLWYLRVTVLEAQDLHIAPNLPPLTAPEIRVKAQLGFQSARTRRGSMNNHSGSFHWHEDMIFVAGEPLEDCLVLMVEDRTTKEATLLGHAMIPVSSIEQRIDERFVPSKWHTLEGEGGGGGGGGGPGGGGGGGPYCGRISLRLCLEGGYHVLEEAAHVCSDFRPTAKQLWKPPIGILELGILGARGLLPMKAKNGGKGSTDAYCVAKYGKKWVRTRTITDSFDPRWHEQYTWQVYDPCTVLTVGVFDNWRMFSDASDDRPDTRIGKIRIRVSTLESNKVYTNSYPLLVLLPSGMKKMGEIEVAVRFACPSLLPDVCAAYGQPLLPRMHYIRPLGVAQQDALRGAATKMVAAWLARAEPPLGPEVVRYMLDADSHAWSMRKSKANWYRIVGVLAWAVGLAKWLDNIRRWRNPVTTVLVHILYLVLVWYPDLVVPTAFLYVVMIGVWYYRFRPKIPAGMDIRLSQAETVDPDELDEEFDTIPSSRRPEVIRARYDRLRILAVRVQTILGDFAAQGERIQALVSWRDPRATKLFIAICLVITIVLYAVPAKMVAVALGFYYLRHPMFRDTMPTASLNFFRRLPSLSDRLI

[3] = target: T3, QKY-EYFPc-V3 (EYFPc at the end of the C-terminus of QKY) (Arabidopsis) (UniProt B8XCH5); test: as above
T3 sequence: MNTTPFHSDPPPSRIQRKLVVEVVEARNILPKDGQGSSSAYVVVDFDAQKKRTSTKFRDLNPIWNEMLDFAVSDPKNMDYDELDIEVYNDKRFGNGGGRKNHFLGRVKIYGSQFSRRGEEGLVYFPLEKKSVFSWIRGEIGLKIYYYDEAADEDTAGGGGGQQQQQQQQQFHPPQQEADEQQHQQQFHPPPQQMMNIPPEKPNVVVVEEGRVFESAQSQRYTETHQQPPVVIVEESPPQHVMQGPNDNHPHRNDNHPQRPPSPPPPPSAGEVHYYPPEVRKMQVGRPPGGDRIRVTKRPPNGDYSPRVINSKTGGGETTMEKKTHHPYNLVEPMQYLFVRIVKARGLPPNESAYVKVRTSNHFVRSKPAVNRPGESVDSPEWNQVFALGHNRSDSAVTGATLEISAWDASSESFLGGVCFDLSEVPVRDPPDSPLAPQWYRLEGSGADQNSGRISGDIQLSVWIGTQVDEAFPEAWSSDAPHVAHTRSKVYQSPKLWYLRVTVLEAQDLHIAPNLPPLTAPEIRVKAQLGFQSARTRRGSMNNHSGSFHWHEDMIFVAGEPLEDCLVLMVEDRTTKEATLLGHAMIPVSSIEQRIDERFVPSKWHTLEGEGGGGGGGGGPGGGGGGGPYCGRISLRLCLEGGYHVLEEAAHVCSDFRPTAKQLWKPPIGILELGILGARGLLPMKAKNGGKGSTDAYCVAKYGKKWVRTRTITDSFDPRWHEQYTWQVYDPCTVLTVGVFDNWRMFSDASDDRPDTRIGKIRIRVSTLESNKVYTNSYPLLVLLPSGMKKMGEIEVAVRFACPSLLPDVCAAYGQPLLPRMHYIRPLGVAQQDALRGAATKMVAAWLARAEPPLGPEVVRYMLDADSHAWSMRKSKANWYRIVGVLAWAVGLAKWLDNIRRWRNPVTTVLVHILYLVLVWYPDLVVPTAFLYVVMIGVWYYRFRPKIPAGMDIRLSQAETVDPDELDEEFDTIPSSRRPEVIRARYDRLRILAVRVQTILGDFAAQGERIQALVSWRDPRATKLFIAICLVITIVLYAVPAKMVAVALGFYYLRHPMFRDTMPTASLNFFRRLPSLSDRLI

[4] = target: T4, QKY-EYFPc-V1 (C-terminal half of EYFP at the end of the N-terminus of QKY) (Arabidopsis) (UniProt B8XCH5); test: as above
T4 sequence: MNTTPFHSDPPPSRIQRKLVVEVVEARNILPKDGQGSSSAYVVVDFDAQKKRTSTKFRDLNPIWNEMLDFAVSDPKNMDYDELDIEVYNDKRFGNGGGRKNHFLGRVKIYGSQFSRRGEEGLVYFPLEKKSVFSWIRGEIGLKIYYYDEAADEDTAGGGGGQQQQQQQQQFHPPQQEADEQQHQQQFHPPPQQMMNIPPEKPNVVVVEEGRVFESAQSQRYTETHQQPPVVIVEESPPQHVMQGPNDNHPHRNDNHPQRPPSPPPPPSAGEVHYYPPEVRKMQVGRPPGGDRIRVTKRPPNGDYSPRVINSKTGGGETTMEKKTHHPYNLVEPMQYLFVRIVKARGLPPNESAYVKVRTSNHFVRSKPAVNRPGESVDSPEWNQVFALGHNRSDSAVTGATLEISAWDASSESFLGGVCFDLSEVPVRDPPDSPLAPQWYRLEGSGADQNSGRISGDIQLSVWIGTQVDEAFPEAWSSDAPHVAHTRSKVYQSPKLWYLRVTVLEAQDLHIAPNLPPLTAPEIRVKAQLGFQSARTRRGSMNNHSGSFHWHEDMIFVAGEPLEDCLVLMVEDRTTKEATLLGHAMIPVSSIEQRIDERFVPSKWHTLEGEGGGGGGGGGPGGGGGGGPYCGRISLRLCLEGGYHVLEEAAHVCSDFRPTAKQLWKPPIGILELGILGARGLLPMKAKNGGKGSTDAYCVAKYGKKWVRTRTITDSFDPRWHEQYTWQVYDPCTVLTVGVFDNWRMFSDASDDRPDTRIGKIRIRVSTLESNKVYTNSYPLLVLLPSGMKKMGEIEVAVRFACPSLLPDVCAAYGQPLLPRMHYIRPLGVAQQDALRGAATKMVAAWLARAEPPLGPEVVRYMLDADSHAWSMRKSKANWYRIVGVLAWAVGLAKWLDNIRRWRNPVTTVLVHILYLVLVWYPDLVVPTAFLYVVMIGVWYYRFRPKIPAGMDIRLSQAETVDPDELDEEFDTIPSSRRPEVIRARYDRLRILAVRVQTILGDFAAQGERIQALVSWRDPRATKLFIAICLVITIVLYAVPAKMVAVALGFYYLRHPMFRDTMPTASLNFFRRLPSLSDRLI

B1: SCRAMBLED (SCM), full-length, MYC-tagged (SCM-MYC) (receptor, UniProt Q8RWZ1 25-768)
chain: VTNLRDVSAINNLYITLGAPSLHHWLAFGGDPCGEKWQGVVCDSSNITEIRIPGMKVGGGLSDTLADFSSIQVMDFSSNHISGTIPQALPSSIRNLSLSSNRFTGNIPFTLSFLSDLSELSLGSNLLSGEIPDYFQQLSKLTKLDLSSNILEGHLPSSMGDLASLKILYLQDNKLTGTLDVIEDLFLTDLNVENNLFSGPIPPNLLKIPNFKKDGTPFNTSIITPPPPPVVDPPPATHRAPPVPRIPPVSGVPPAPFAPFAPLQPQQHPPPSPPLVWSPPSSDNGGGDPWNSVSGQPTLQISPPSGSGSGKFWSTQRIILVVSSVAIIVLVSGLCVTLWRCCRSKIYNRYYSGARKDLQRPYFNKPPSQPTPTMGKVSREPMVKPFDGYGAGDRKYGYPMPQRAEESRRAMPPTSYYNKDVNTPQKPLQQPPRQFQSNDTASKRAAHFPPGLNSSSSATVFTIASLQQYTNNFSEENIIGEGSIGNVYRAELRHGKFLAVKKLSNTINRTQSDGEFLNLVSNVLKLKRGHILELLGYCNEFGQRLLVYEYCPNGSLQDALHLDRKLHKKLTWNVRINIALGASKALQFLHEVCQPPVVHQNFKSSKVLLDGKLSVRVADSGLAYMLPPRPTSQMAGYAAPEVEYGSYTCQSDVFSLGVVMLELLTGRRPFDRTRPRGHQTLAQWAIPRLHDIDALTRMVDPSLHGAYPMKSLSRFADIISRSLQMEPGFRPPISEIVQDLQHMI
[1]
  binding: binds

B2: SCM-EYFPn-V2 (N-terminal half of EYFP fused to the C-terminus of SCM) (receptor, UniProt Q8RWZ1 25-768)
chain: VTNLRDVSAINNLYITLGAPSLHHWLAFGGDPCGEKWQGVVCDSSNITEIRIPGMKVGGGLSDTLADFSSIQVMDFSSNHISGTIPQALPSSIRNLSLSSNRFTGNIPFTLSFLSDLSELSLGSNLLSGEIPDYFQQLSKLTKLDLSSNILEGHLPSSMGDLASLKILYLQDNKLTGTLDVIEDLFLTDLNVENNLFSGPIPPNLLKIPNFKKDGTPFNTSIITPPPPPVVDPPPATHRAPPVPRIPPVSGVPPAPFAPFAPLQPQQHPPPSPPLVWSPPSSDNGGGDPWNSVSGQPTLQISPPSGSGSGKFWSTQRIILVVSSVAIIVLVSGLCVTLWRCCRSKIYNRYYSGARKDLQRPYFNKPPSQPTPTMGKVSREPMVKPFDGYGAGDRKYGYPMPQRAEESRRAMPPTSYYNKDVNTPQKPLQQPPRQFQSNDTASKRAAHFPPGLNSSSSATVFTIASLQQYTNNFSEENIIGEGSIGNVYRAELRHGKFLAVKKLSNTINRTQSDGEFLNLVSNVLKLKRGHILELLGYCNEFGQRLLVYEYCPNGSLQDALHLDRKLHKKLTWNVRINIALGASKALQFLHEVCQPPVVHQNFKSSKVLLDGKLSVRVADSGLAYMLPPRPTSQMAGYAAPEVEYGSYTCQSDVFSLGVVMLELLTGRRPFDRTRPRGHQTLAQWAIPRLHDIDALTRMVDPSLHGAYPMKSLSRFADIISRSLQMEPGFRPPISEIVQDLQHMI
[2]
  binding: binds

B3: SCM-EYFPn-V1 (EYFPn fused to the N-terminus of SCM) (receptor, UniProt Q8RWZ1 25-768)
chain: VTNLRDVSAINNLYITLGAPSLHHWLAFGGDPCGEKWQGVVCDSSNITEIRIPGMKVGGGLSDTLADFSSIQVMDFSSNHISGTIPQALPSSIRNLSLSSNRFTGNIPFTLSFLSDLSELSLGSNLLSGEIPDYFQQLSKLTKLDLSSNILEGHLPSSMGDLASLKILYLQDNKLTGTLDVIEDLFLTDLNVENNLFSGPIPPNLLKIPNFKKDGTPFNTSIITPPPPPVVDPPPATHRAPPVPRIPPVSGVPPAPFAPFAPLQPQQHPPPSPPLVWSPPSSDNGGGDPWNSVSGQPTLQISPPSGSGSGKFWSTQRIILVVSSVAIIVLVSGLCVTLWRCCRSKIYNRYYSGARKDLQRPYFNKPPSQPTPTMGKVSREPMVKPFDGYGAGDRKYGYPMPQRAEESRRAMPPTSYYNKDVNTPQKPLQQPPRQFQSNDTASKRAAHFPPGLNSSSSATVFTIASLQQYTNNFSEENIIGEGSIGNVYRAELRHGKFLAVKKLSNTINRTQSDGEFLNLVSNVLKLKRGHILELLGYCNEFGQRLLVYEYCPNGSLQDALHLDRKLHKKLTWNVRINIALGASKALQFLHEVCQPPVVHQNFKSSKVLLDGKLSVRVADSGLAYMLPPRPTSQMAGYAAPEVEYGSYTCQSDVFSLGVVMLELLTGRRPFDRTRPRGHQTLAQWAIPRLHDIDALTRMVDPSLHGAYPMKSLSRFADIISRSLQMEPGFRPPISEIVQDLQHMI
[3]
  binding: binds
[4]
  binding: binds
